Experimental data as given in US9701962B2, “Hydrophobically modified antisense oligonucleotides comprising a ketal group” (Institut National de la Sante et de la Recherche Medicale …, priority 2013, dated 2017).
At least one read-out could not be matched to a standard name with certainty.

Experiment: LON-assisted aqueous solubilization (loading) of Paclitaxel, RP-C4-HPLC
Type: physicochemical
Conditions: 10 mM PBS pH 7, 100 mM NaCl

| Substance | solubilizing Paclitaxel |
| --- | --- |
| dA15: adenine 15-mer of sequence SEQ ID NO: 32 (DNA AAAAAAAAAAAAAAA; DNA, backbone not given here; further chemistry not fully specified) | very poor |
| dT15: thymidine 15-mer of sequence SEQ ID NO: 33 | very poor |
